According to US20250297220A1, “IMMUNE-ACTIVATING COMPLEXES” (Dynamic Cell Therapies, Inc., priority 2022, published 2025):
At least one compound was matched to its structure with a doubt left.

Experiments:
[1] = tested on: engineered cytokine receptor switches (fluorescein-binding receptor domains, IL-7 receptor-a intracellular signaling domains); assay: T-cell activation, transduction, expansion and differentiation; memory phenotype quantification; assay type: cell-based; details: after 5 days in multi-well plates
Description: This example covers activation, differentiation, and expansion of immune cells with engineered cytokine receptor switches. The engineered cytokine receptor switches included fluorescein-binding receptor domains and IL-7 receptor-a intracellular signaling domains. The cells were activated with CD3 and CD28 antibody-coated beads, followed by small molecule activators for the engineered cytokine switches to promote differentiation to memory phenotypes. The proportion of stem-cell memory, central memory, and effector memory cells were measured following differentiation.
Activation, transfection, expansion, and differentiation were performed according to the timeline in FIG. 28A. The cells were maintained in media with 20 units/ml IL2 throughout the incubation. The cells were first contacted with CD3/CD28 activating beads at a ratio of 1:1 (cells to beads). Following three days of activation and expansion, the cells were transfected with a gamma retroviral vector encoding the engineered cytokine receptor switch with fluorescein binding affinity and mCherry for fluorescence detection. The cells were then transferred to a multi-well plate. […]
Following 5 total days of incubation in the multi-well plates, the cells were analyzed for (1) stem-cell memory, (2) central memory, (3) effector memory, and (4) terminally differentiated effector memory re-expressing CD45RA phenotype. […]

[2] = tested on: fluorescein-activatable engineered cytokine receptor switches; assay: Ex vivo activation of engineered T-cells; memory T-cell populations; assay type: cell-based; details: 100 μg/ml fluorescein, 10 units/ml IL2

O=C1OC2(c3ccc(O)cc3Oc3cc(O)ccc32)c2ccccc21 [fluorescein]
proportion of non-memory cells vs non-fluorescein contacted cells [1]: lower proportion of non-memory cells | proportions of memory T-cell phenotypes [2]: increased the proportion of stem-cell memory T-cells and central memory T-cells and diminished the proportion of effector memory T-cells
